{"source": "patent US20220378861A1", "about": "“COMPOSITIONS AND METHODS FOR DELIVERING CANNABINOIDS USING MICRONEEDLE DEVICES TO THE SKIN” (AQUAVIT PHARMACEUTICALS, INC., priority 2019, published 2022)", "origin": "cited, not measured here", "settings": "oral delivery", "note": "Some entries share one result that the patent states for a list of compounds.", "data": [{"smiles": "CCCCCc1cc(O)c2c(c1)OC(C)(C)[C@@H]1CCC(C)=C[C@@H]21", "note": "[THC, tetrahydrocannabinol]", "values": [{"measurement": "peak concentrations occurring post dose", "value": "1 to 5", "unit": "h"}]}]}
